Results as given in patent US20260193623.
For at least one entry, the source does not settle the construct or the ends of the probe. Tags and fusion partners may be left off the protein sequences shown.

How the values were obtained:
Assay in all cases: activity assay
[1] = system: T1, MG151-92; conditions: primer extension gel; protein translated in vitro; protein details: Strep, RT-RNase H trim; label: 5'-FAM primer; DNA:RNA hybrid
T1 sequence: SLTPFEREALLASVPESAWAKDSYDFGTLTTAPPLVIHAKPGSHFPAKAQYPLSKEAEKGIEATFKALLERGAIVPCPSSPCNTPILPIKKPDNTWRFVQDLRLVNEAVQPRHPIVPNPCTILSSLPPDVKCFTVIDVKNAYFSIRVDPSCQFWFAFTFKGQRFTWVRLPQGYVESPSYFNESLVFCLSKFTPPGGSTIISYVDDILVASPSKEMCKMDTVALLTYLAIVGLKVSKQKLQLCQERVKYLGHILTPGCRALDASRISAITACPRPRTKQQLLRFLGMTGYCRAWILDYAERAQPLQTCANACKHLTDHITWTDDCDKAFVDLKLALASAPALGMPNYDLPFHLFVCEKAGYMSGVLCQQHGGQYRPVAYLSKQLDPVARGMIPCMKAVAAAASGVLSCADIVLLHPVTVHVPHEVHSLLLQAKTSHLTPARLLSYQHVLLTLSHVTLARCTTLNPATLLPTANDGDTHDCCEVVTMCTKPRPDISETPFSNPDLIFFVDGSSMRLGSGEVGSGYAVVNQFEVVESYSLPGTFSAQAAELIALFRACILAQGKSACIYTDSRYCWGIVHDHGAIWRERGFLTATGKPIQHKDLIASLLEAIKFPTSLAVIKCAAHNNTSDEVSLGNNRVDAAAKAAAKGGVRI

[2] = system: T2, MG160-4; conditions: primer extension gel and qPCR; protein translated in vitro; protein details: N-terminal Strep; label: 5'-FAM primer; DNA:RNA hybrid
T2 sequence: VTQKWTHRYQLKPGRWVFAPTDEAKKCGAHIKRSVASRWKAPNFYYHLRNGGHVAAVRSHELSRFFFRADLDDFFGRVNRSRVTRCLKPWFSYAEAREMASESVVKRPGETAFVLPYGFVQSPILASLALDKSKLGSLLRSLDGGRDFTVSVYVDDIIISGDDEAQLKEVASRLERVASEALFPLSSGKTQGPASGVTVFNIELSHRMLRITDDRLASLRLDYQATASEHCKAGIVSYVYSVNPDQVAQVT

[3] = system: T3, MG160-2; conditions: primer extension gel and qPCR; protein translated in vitro; protein details: N-terminal Strep; label: 5'-FAM primer; DNA:RNA hybrid
T3 sequence: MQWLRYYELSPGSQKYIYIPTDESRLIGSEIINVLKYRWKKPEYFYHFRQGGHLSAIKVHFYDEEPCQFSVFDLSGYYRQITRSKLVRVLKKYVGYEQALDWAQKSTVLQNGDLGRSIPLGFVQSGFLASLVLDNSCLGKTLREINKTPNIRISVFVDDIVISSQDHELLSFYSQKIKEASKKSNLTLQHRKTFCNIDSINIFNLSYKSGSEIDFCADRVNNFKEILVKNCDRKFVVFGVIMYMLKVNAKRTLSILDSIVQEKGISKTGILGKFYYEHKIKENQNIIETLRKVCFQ

[4] = system: T4, MG160-3; conditions: primer extension gel and qPCR; protein translated in vitro; protein details: N-terminal Strep; label: 5'-FAM primer; DNA:RNA hybrid
T4 sequence: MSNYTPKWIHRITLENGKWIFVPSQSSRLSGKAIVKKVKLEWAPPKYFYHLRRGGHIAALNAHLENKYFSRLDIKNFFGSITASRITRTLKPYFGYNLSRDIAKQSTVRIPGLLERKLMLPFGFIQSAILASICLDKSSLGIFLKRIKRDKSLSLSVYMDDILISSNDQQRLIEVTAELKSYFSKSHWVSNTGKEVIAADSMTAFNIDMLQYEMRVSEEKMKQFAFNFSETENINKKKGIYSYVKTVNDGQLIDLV

[5] = system: T5, MG173-8; conditions: primer extension on general RNA; protein translated in vitro; protein details: N-terminal Strep; label: 5'-FAM primer; DNA:RNA hybrid
T5 sequence (limits assumed): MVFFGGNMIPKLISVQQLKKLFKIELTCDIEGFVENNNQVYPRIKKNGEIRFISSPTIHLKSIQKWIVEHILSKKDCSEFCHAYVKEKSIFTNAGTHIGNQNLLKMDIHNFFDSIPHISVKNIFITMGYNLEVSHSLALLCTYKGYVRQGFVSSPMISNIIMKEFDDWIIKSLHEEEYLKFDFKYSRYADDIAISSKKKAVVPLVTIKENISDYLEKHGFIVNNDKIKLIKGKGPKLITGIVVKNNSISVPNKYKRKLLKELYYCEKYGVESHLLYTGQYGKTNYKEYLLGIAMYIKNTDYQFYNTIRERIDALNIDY

[6] = system: T6, MG173-4; conditions: primer extension on general RNA; protein translated in vitro; protein details: N-terminal Strep; label: 5'-FAM primer; DNA:RNA hybrid
T6 sequence (limits assumed): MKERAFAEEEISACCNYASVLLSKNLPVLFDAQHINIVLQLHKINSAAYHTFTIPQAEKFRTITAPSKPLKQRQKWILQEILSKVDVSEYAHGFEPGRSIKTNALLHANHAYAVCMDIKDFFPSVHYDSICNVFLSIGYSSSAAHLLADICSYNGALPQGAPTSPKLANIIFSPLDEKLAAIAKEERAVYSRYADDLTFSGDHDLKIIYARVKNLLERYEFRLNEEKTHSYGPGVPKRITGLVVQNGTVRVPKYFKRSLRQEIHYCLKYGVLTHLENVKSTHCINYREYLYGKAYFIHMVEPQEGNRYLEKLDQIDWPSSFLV

[7] = system: T7, MG151-93; conditions: primer extension gel; protein translated in vitro; protein details: Strep, RT-RNase H trim; label: 5'-FAM primer; DNA:RNA hybrid
T7 sequence: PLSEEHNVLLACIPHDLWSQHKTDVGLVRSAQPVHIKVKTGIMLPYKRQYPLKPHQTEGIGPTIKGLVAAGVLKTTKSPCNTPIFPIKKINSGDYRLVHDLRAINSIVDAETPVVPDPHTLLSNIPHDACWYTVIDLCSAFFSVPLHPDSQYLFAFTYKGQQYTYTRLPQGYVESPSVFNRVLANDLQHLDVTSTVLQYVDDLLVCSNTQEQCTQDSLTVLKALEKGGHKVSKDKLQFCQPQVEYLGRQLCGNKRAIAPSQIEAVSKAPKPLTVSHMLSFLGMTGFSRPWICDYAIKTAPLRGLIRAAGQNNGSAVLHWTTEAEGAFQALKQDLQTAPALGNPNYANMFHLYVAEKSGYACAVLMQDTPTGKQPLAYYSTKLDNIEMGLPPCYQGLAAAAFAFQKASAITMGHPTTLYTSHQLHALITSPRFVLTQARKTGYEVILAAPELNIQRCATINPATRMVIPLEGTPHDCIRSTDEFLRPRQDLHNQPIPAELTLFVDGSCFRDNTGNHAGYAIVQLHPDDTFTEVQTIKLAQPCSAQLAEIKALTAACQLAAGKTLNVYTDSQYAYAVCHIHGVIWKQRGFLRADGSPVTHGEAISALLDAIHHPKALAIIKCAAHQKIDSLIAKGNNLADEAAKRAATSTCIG

Measured: activity on this sequence

GGCAAACCGCCTCTCCCCGCGCGTTGGCCGATTCATTAATGCAGCTGGCACGACAGGTTTCCCGACTGGAAAGGAGACCCGGGCAGTGAGCGCAACGGGTCTCCAATTTAAGCCAGCCCCGACACCCGCCAACACCCGCTGACGCGCCCTGACGGGCTTGTCTGCTCCCGGCATCCGCTTACAGACAAGCTGTGACCGTCTC / GAGACGGTCACAGCTTGTCTG [202-nt RNA template annealed to DNA primer]
active: all assays above
